{"source": "paper PMC7852545", "about": "“Cell fate determined by the activation balance between PKR and SPHK1” (Cell Death and Differentiation, 2020)", "key": {"[1]": {"target": "endogenous phosphorylated SPHK1 (phospho-Ser225) (human (endogenous in HEK293T)) (UniProt Q9NYA1)", "test": "co-IP; HEK293T transfected with Flag-tagged PKR (wild type, 451A, 451D); immunoprecipitation with the indicated antibodies; endogenous SPHK1 and phosphorylated SPHK1 detected"}, "[2]": {"target": "endogenous SPHK1 (human (endogenous in HEK293T)) (UniProt Q9NYA1)", "test": "co-IP; HEK293T transfected with Flag-tagged PKR (wild type, 451A, 451D); immunoprecipitation with the indicated antibodies; endogenous SPHK1 and phosphorylated SPHK1 detected"}, "[3]": {"target": "SPHK1-Flag (sphingosine kinase 1, wild type, Flag-tagged) (human) (UniProt Q9NYA1)", "test": "co-IP; HEK293T co-transfected with SPHK1-Flag and PKR-Myc for 24 h; lysis in NETN buffer (20 mM Tris-HCl pH 8.0, 100 mM NaCl, 1 mM EDTA, 0.5% NP-40); anti-Flag (M2) magnetic beads; blot with anti-Myc and anti-Flag"}, "SPHK1^225D-VC155 (human)": {"target": "SPHK1^225D-VC155 (human) (UniProt Q9NYA1)", "test": "split reporter; BiFC with Venus fragments; PKR-VN173 and SPHK1-VC155 constructs and the mutants transfected into HEK293T for 24 h; living cells, confocal microscopy"}, "[4]": {"target": "SPHK1-Flag (sphingosine kinase 1, wild type, Flag-tagged) (human) (UniProt Q9NYA1)", "test": "co-IP; HepG2 and HEK293T transfected with SPHK1-Flag and the two PKR-HA deletion mutants; immunoprecipitation with an anti-Flag antibody"}, "[5]": {"target": "PKR^451A (co-IP of Supplementary Fig. 14b) (human) (UniProt P19525)", "test": "co-IP; Supplementary Fig. 14b; SPHK1^225D or SPHK1^225A immunoprecipitated by PKR and its mutants; constructs and cells not shown"}, "[6]": {"target": "PKR (co-IP of Supplementary Fig. 14b) (human) (UniProt P19525)", "test": "co-IP; Supplementary Fig. 14b; SPHK1^225D or SPHK1^225A immunoprecipitated by PKR and its mutants; constructs and cells not shown"}, "[7]": {"target": "SPHK1^225D-Flag (phosphomimetic mutant of SPHK1) (human) (UniProt Q9NYA1)", "test": "co-IP; HEK293T transfected with Flag-tagged SPHK1 (0, 1, 2, 3 ug DNA; wild type, 225A or 225D); immunoprecipitation with antibodies against Flag or PKR; endogenous PKR and phosphorylated PKR detected by blot"}, "[8]": {"target": "SPHK1^225A-Flag (phosphorylation-deficient mutant of SPHK1) (human) (UniProt Q9NYA1)", "test": "co-IP; HEK293T transfected with Flag-tagged SPHK1 (0, 1, 2, 3 ug DNA; wild type, 225A or 225D); immunoprecipitation with antibodies against Flag or PKR; endogenous PKR and phosphorylated PKR detected by blot"}, "[9]": {"target": "SPHK1-Flag (sphingosine kinase 1, wild type, Flag-tagged) (human) (UniProt Q9NYA1)", "test": "co-IP; HEK293T transfected with Flag-tagged SPHK1 (0, 1, 2, 3 ug DNA; wild type, 225A or 225D); immunoprecipitation with antibodies against Flag or PKR; endogenous PKR and phosphorylated PKR detected by blot"}, "SPHK1-VC155 (human)": {"target": "SPHK1-VC155 (human) (UniProt Q9NYA1)", "test": "split reporter; BiFC with Venus fragments; PKR-VN173 and SPHK1-VC155 constructs and the mutants transfected into HEK293T for 24 h; living cells, confocal microscopy"}, "[10]": {"target": "endogenous phosphorylated SPHK1 (phospho-Ser225) (human (endogenous in HEK293T)) (UniProt Q9NYA1)", "test": "co-IP; endogenous proteins in HEK293T lysate; immunoprecipitation with the indicated antibodies; also after 2 ng/mL leptomycin B for 2 h (interaction enhanced)"}, "[11]": {"target": "endogenous SPHK1 (human (endogenous in HEK293T)) (UniProt Q9NYA1)", "test": "co-IP; endogenous proteins in HEK293T lysate; immunoprecipitation with the indicated antibodies; also after 2 ng/mL leptomycin B for 2 h (interaction enhanced)"}, "GST-SPHK1 (human)": {"target": "GST-SPHK1 (human) (UniProt Q9NYA1)", "test": "pull-down; GST-SPHK1 bound to agarose beads (30 ug GST fusion protein) added to lysate of 293T cells overexpressing PKR-HA; 4 h at 4 °C; washed with NETN buffer; only the target purified"}}, "note": "No constants are given. Whether binding was seen depends on the method and setting. Binding seen in cells or lysates may run through a third protein. Some results given as binding are weak or reduced against the parent protein; the word gives no strength."}
{"substance": "PKR^451A-Flag (from UniProt P19525 1-551) (enzyme)", "values": [{"measurement": "binding", "setting": "[1]", "result": "binds"}, {"measurement": "binding", "setting": "[2]", "result": "binds"}]}
{"substance": "PKR-Myc (double-stranded RNA-dependent protein kinase R, Myc-tagged) (from UniProt P19525 1-551) (enzyme)", "values": [{"measurement": "binding", "setting": "[3]", "result": "binds"}]}
{"substance": "PKR^451A-VN173 (from UniProt P19525 1-551) (enzyme)", "values": [{"measurement": "binding", "setting": "SPHK1^225D-VC155 (human)", "result": "binds"}]}
{"substance": "PKR-HA deletion mutant D2 (C-terminal kinase part of PKR) (from UniProt P19525 297-551) (domain or fragment)", "values": [{"measurement": "binding", "setting": "[4]", "result": "binds"}]}
{"substance": "SPHK1^225D (co-IP of Supplementary Fig. 14b) (from UniProt Q9NYA1 1-384) (enzyme)", "values": [{"measurement": "binding", "setting": "[5]", "result": "binds"}, {"measurement": "binding", "setting": "[6]", "result": "binds"}]}
{"substance": "endogenous phosphorylated PKR (phospho-Thr451) (from UniProt P19525 1-551) (enzyme)", "values": [{"measurement": "binding", "setting": "[7]", "result": "binds"}, {"measurement": "binding", "setting": "[8]", "result": "binds"}, {"measurement": "binding", "setting": "[9]", "result": "binds"}]}
{"substance": "PKR^451D-Flag (from UniProt P19525 1-551) (enzyme)", "values": [{"measurement": "binding", "setting": "[1]", "result": "binds"}, {"measurement": "binding", "setting": "[2]", "result": "binds"}]}
{"substance": "PKR-Flag (wild type) (from UniProt P19525 1-551) (enzyme)", "values": [{"measurement": "binding", "setting": "[1]", "result": "binds"}, {"measurement": "binding", "setting": "[2]", "result": "binds"}]}
{"substance": "PKR-VN173 (from UniProt P19525 1-551) (enzyme)", "values": [{"measurement": "binding", "setting": "SPHK1-VC155 (human)", "result": "binds"}, {"measurement": "binding", "setting": "SPHK1^225D-VC155 (human)", "result": "binds"}]}
{"substance": "endogenous PKR (from UniProt P19525 1-551) (enzyme)", "values": [{"measurement": "binding", "setting": "[7]", "result": "binds"}, {"measurement": "binding", "setting": "[8]", "result": "binds"}, {"measurement": "binding", "setting": "[9]", "result": "binds"}, {"measurement": "binding", "setting": "[10]", "result": "binds"}, {"measurement": "binding", "setting": "[11]", "result": "binds"}]}
{"substance": "SPHK1^225A (co-IP of Supplementary Fig. 14b) (from UniProt Q9NYA1 1-384) (enzyme)", "values": [{"measurement": "binding", "setting": "[5]", "result": "binds"}, {"measurement": "binding", "setting": "[6]", "result": "binds"}]}
{"substance": "PKR-HA (double-stranded RNA-dependent protein kinase R, HA-tagged) (from UniProt P19525 1-551) (enzyme)", "values": [{"measurement": "binding", "setting": "GST-SPHK1 (human)", "result": "binds"}]}
